Results are given in words; binding and its absence hold for the method and conditions named. Binding seen in cells or lysates may run through a third protein.

The chains behind the UniProt entries cited, without tags or fusion partners.
UniProt P16790: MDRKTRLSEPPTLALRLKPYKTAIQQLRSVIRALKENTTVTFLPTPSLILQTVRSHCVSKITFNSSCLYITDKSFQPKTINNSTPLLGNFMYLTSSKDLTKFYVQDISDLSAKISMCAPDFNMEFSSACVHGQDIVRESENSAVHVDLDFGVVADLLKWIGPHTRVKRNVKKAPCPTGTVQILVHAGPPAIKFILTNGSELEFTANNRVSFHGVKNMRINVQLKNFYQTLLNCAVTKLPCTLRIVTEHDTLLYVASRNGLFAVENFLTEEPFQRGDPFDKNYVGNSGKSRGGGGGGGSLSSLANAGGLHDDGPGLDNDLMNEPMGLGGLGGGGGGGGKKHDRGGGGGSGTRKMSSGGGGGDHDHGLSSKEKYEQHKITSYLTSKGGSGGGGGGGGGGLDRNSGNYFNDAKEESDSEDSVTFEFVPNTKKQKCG
UniProt P42224: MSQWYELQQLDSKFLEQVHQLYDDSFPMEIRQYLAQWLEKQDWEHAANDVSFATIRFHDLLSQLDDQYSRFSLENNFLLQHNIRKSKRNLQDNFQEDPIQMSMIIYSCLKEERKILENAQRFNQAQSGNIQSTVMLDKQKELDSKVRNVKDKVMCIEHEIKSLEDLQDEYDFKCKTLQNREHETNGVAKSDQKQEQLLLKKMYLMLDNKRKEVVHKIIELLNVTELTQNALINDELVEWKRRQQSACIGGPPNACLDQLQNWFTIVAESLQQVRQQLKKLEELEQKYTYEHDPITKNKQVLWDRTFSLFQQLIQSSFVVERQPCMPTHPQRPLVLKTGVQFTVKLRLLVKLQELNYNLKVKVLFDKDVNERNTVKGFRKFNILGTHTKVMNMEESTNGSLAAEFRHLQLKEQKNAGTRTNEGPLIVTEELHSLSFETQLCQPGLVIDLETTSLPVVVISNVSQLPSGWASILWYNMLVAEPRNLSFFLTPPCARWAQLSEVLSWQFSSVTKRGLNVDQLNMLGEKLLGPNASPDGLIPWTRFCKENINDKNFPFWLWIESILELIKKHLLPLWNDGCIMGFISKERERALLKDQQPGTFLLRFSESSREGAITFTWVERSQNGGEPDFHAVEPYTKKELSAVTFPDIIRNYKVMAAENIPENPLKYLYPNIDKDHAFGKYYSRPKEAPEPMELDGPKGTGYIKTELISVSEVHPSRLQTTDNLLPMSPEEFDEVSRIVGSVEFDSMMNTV

Assay [1] addresses T1, endogenous human Nmi (human (endogenous in U251 and human foreskin fibroblasts)) (UniProt Q13287).
T1 sequence: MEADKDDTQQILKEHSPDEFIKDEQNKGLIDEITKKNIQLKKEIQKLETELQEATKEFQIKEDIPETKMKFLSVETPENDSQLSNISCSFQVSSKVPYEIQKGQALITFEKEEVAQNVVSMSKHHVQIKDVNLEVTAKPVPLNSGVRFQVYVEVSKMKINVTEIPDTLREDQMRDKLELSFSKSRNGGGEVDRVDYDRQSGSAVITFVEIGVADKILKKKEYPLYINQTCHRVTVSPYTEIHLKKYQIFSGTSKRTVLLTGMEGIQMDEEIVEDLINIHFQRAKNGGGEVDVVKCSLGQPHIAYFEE
Briefly: co-IP; U251 cells infected with HCMV (MOI = 1), lysates at 48-72 h postinfection; IP with anti-UL23, anti-UL44 or anti-Nmi, blots for UL23, UL44 and Nmi.

In assay [2] the target is T1, endogenous human Nmi (human (endogenous in U251 and human foreskin fibroblasts)). The assay is described as follows: condition: only in fibroblasts infected with viruses that express UL23; co-IP; IFN-γ-treated human foreskin fibroblasts infected with TowneBAC or the rescued viruses.
For assay [3] the target is unchanged. Briefly: condition: only in cells with pCMV-FLAG-UL23, which express FLAG-tagged UL23; co-IP; cells containing pCMV-FLAG-UL23, as for U251-UL23 cells.
Assay [4] has the same target. The assay is described as follows: condition: only in cells infected with viruses that express UL23 (TowneBAC, R-ΔUL23, R-stop); co-IP; IFN-γ-treated U251 cells infected with TowneBAC or the rescued viruses R-ΔUL23 and R-stop (MOI = 1) at 12 h post-treatment, lysates at 24-48 h postinfection; IP with anti-UL23, anti-Nmi or ….
Assay [5] has the same target. Briefly: condition: only in U251-UL23 cells, which express UL23; co-IP; U251-UL23 cells (pCDNA-UL23) treated with IFN-γ (1000 U/ml) for 12 h; IP with anti-UL23, anti-Nmi or anti-STAT1.

For “HCMV polymerase processivity factor, UL44 protein (from UniProt P16790 1-433)”, in assay [1], the binding result is on record as “no binding”.

With “endogenous human STAT1 (from UniProt P42224 1-750)”, the binding entry in assay [2], in assay [3], in assay [4] and in assay [5] was “no binding” throughout.

The values above are taken from article PMC5805366.
